Measurements published in patent US20100298285A1, “Biclycloheteroaryl Compounds as P2x7 Modulators and Uses Thereof” (priority 2006, published 2010).
At least one read-out could not be matched to a standard name with certainty.

System: IL-1β release, THP-1 cells
Assay: IL-1β release assay in differentiated THP-1 cells stimulated with BzATP (Example 9)
Type: cell-based, human
Conditions: BzATP 250 uM, + symbols = 0.3 μM, * symbols = 0.1 μM compound concentration
Procedure, shortened: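 THP-1 cells differentiated 16 h with 100 ng/mL LPS + 100 ng/mL IFN-γ, re-primed 2 h with fresh LPS 100 ng/mL, pretreated 30 min with compound, then stimulated with BzATP 250 uM final for 45 min. Supernatant IL-1β by ELISA; background-adjusted % inhibition, IC50 from four-parameter logistic fit.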

Structure (SMILES)	IL-1β% Inhib. @ 0.3 or 0.1 μM
Cc1ccc2c(c1NC(=O)Cc1ccc(C(F)(F)F)c(F)c1)CCN(S(=O)(=O)c1ccc(F)c(Cl)c1)C2 [Compound 3428]	+ (compound exhibited 0-25% inhibition at 0.3 μM concentration)
Cc1ccc2c(c1NC(=O)Cc1ccc(C(F)(F)F)c(F)c1)CCN(S(=O)(=O)c1ccccc1-c1ccccc1)C2 [Compound 3429]	+ (compound exhibited 0-25% inhibition at 0.3 μM concentration)
Cc1ccc2c(c1NC(=O)Cc1ccc(C(F)(F)F)c(F)c1)CCN(S(=O)(=O)c1ccc(-c3cc(C(F)(F)F)n(C)n3)s1)C2 [Compound 3430]	+ (compound exhibited 0-25% inhibition at 0.3 μM concentration)
COc1ccc(-c2ccc(S(=O)(=O)N3CCc4c(ccc(C)c4NC(=O)Cc4ccc(C(F)(F)F)c(F)c4)C3)cc2)cc1 [Compound 3431]	+ (compound exhibited 0-25% inhibition at 0.3 μM concentration)
Cc1ccc2c(c1NC(=O)Cc1ccc(C(F)(F)F)c(F)c1)CCN(S(=O)(=O)c1ccc(C#N)cc1Cl)C2 [Compound 3432]	++++ (compound exhibited 76% or greater inhibition at 0.3 μM concentration)
CCS(=O)(=O)N1CCc2c(ccc(C)c2NC(=O)Cc2ccc(C(F)(F)F)c(F)c2)C1 [Compound 3433]	++++ (compound exhibited 76% or greater inhibition at 0.3 μM concentration)
Cc1ccc2c(c1NC(=O)Cc1ccc(C(F)(F)F)c(F)c1)CCN(S(=O)(=O)c1ccccc1)C2 [Compound 3434]	++ (compound exhibited 26-50% inhibition at 0.3 μM concentration)
Cc1ccc2c(c1NC(=O)Cc1ccc(C(F)(F)F)c(F)c1)CCN(S(=O)(=O)c1ccc(Oc3ccc(C(F)(F)F)cc3)cc1)C2 [Compound 3435]	+ (compound exhibited 0-25% inhibition at 0.3 μM concentration)
Cc1ccc2c(c1NC(=O)Cc1ccc(C(F)(F)F)c(F)c1)CCN(S(=O)(=O)c1cccc(C(=O)O)c1)C2 [Compound 3436]	+ (compound exhibited 0-25% inhibition at 0.3 μM concentration)
Cc1ccc2c(c1NC(=O)Cc1ccc(C(F)(F)F)c(F)c1)CCN(S(=O)(=O)c1ccc(-c3cc(C(F)(F)F)on3)s1)C2 [Compound 3437]	+ (compound exhibited 0-25% inhibition at 0.3 μM concentration)
Cc1ccc2c(c1NC(=O)Cc1ccc(C(F)(F)F)c(F)c1)CCN(S(=O)(=O)c1cc(C(F)(F)F)ccc1Cl)C2 [Compound 3438]	+ (compound exhibited 0-25% inhibition at 0.3 μM concentration)
Cc1ccc2c(c1NC(=O)Cc1ccc(C(F)(F)F)c(F)c1)CCN(S(=O)(=O)c1ccccc1Oc1ccccc1)C2 [Compound 3439]	++ (compound exhibited 26-50% inhibition at 0.3 μM concentration)
Cc1ccc2c(c1NC(=O)Cc1ccc(C(F)(F)F)c(F)c1)CCN(S(=O)(=O)c1cccc(Cl)c1)C2 [Compound 3440]	+ (compound exhibited 0-25% inhibition at 0.3 μM concentration)
COc1ccc(S(=O)(=O)N2CCc3c(ccc(C)c3NC(=O)Cc3ccc(C(F)(F)F)c(F)c3)C2)cc1 [Compound 3441]	+++ (compound exhibited 51-75% inhibition at 0.3 μM concentration)
Cc1ccc(-c2ccccc2S(=O)(=O)N2CCc3c(ccc(C)c3NC(=O)Cc3ccc(C(F)(F)F)c(F)c3)C2)cc1 [Compound 3442]	+ (compound exhibited 0-25% inhibition at 0.3 μM concentration)
Cc1ccc2c(c1NC(=O)Cc1ccc(C(F)(F)F)c(F)c1)CCN(S(=O)(=O)c1ccc3ccccc3c1)C2 [Compound 3443]	+ (compound exhibited 0-25% inhibition at 0.3 μM concentration)
Cc1ccc2c(c1NC(=O)Cc1ccc(C(F)(F)F)c(F)c1)CCN(S(=O)(=O)c1cccc(F)c1)C2 [Compound 3444]	+ (compound exhibited 0-25% inhibition at 0.3 μM concentration)
COc1cccc(S(=O)(=O)N2CCc3c(ccc(C)c3NC(=O)Cc3ccc(C(F)(F)F)c(F)c3)C2)c1 [Compound 3445]	+ (compound exhibited 0-25% inhibition at 0.3 μM concentration)
Cc1ccc2c(c1NC(=O)Cc1ccc(C(F)(F)F)c(F)c1)CCN(S(=O)(=O)c1ccccc1C(F)(F)F)C2 [Compound 3446]	++ (compound exhibited 26-50% inhibition at 0.3 μM concentration)
Cc1ccc2c(c1NC(=O)Cc1ccc(C(F)(F)F)c(F)c1)CCN(S(=O)(=O)c1ccc(OC(F)(F)F)cc1)C2 [Compound 3447]	+ (compound exhibited 0-25% inhibition at 0.3 μM concentration)
CCCCS(=O)(=O)N1CCc2c(ccc(C)c2NC(=O)Cc2ccc(C(F)(F)F)c(F)c2)C1 [Compound 3448]	++++ (compound exhibited 76% or greater inhibition at 0.3 μM concentration)
Cc1ccc2c(c1NC(=O)Cc1ccc(C(F)(F)F)c(F)c1)CCN(S(=O)(=O)c1ccccc1OC(F)(F)F)C2 [Compound 3449]	+ (compound exhibited 0-25% inhibition at 0.3 μM concentration)
Cc1ccccc1S(=O)(=O)N1CCc2c(ccc(C)c2NC(=O)Cc2ccc(C(F)(F)F)c(F)c2)C1 [Compound 3450]	++ (compound exhibited 26-50% inhibition at 0.3 μM concentration)

Structure (SMILES)	IL-1β% Inhib. @ 0.3 or 0.1 μM
Cc1ccc2c(c1NC(=O)Cc1ccc(C(F)(F)F)c(F)c1)CCN(S(=O)(=O)c1ccc(OC(F)F)cc1)C2 [Compound 3451]	+ (compound exhibited 0-25% inhibition at 0.3 μM concentration)
COc1ccc(OC)c(S(=O)(=O)N2CCc3c(ccc(C)c3NC(=O)Cc3ccc(C(F)(F)F)c(F)c3)C2)c1 [Compound 3452]	++++ (compound exhibited 76% or greater inhibition at 0.3 μM concentration)
Cc1ccc2c(c1NC(=O)Cc1ccc(C(F)(F)F)c(F)c1)CCN(S(=O)(=O)c1cc(F)ccc1F)C2 [Compound 3453]	++++ (compound exhibited 76% or greater inhibition at 0.3 μM concentration)
Cc1ccc2c(c1NC(=O)Cc1ccc(C(F)(F)F)c(F)c1)CCN(S(=O)(=O)c1ccc(C(F)(F)F)cc1)C2 [Compound 3454]	+ (compound exhibited 0-25% inhibition at 0.3 μM concentration)
Cc1ccc2c(c1NC(=O)Cc1ccc(C(F)(F)F)c(F)c1)CCN(S(=O)(=O)c1ccccc1Cl)C2 [Compound 3455]	++++ (compound exhibited 76% or greater inhibition at 0.3 μM concentration)
Cc1ccc2c(c1NC(=O)Cc1ccc(C(F)(F)F)c(F)c1)CCN(S(=O)(=O)c1ccc(Oc3ccccn3)cc1)C2 [Compound 3456]	++ (compound exhibited 26-50% inhibition at 0.3 μM concentration)
Cc1ccc2c(c1NC(=O)Cc1ccc(C(F)(F)F)c(F)c1)CCN(S(=O)(=O)c1cccc(Cl)c1C)C2 [Compound 3457]	++ (compound exhibited 26-50% inhibition at 0.3 μM concentration)
Cc1ccc2c(c1NC(=O)Cc1ccc(C(F)(F)F)c(F)c1)CCN(S(=O)(=O)c1ccc(Oc3ncc(C(F)(F)F)cc3Cl)cc1)C2 [Compound 3458]	+ (compound exhibited 0-25% inhibition at 0.3 μM concentration)
Cc1ccc2c(c1NC(=O)Cc1ccc(C(F)(F)F)c(F)c1)CCN(S(=O)(=O)c1ccc(Oc3ccccc3)cc1)C2 [Compound 3459]	+ (compound exhibited 0-25% inhibition at 0.3 μM concentration)
Cc1ccc2c(c1NC(=O)Cc1ccc(C(F)(F)F)c(F)c1)CCN(S(=O)(=O)c1ccccc1F)C2 [Compound 3460]	++++ (compound exhibited 76% or greater inhibition at 0.3 μM concentration)
Cc1ccc2c(c1NC(=O)Cc1ccc(C(F)(F)F)c(F)c1)CCN(S(=O)(=O)c1ccc(C(C)C)cc1)C2 [Compound 3461]	+ (compound exhibited 0-25% inhibition at 0.3 μM concentration)
Cc1ccc2c(c1NC(=O)Cc1ccc(C(F)(F)F)c(F)c1)CCN(S(=O)(=O)c1cccc3ccccc13)C2 [Compound 3462]	+ (compound exhibited 0-25% inhibition at 0.3 μM concentration)
Cc1ccc2c(c1NC(=O)Cc1ccc(C(F)(F)F)c(F)c1)CCN(S(=O)(=O)c1cccc(C#N)c1)C2 [Compound 3463]	++ (compound exhibited 26-50% inhibition at 0.3 μM concentration)
Cc1ccc2c(c1NC(=O)Cc1ccc(C(F)(F)F)c(F)c1)CCN(S(=O)(=O)c1ccc(OC(C)C)cc1)C2 [Compound 3464]	++ (compound exhibited 26-50% inhibition at 0.3 μM concentration)
Cc1ccc2c(c1NC(=O)Cc1ccc(C(F)(F)F)c(F)c1)CCN(S(=O)(=O)c1ccc3ncsc3c1)C2 [Compound 3465]	+++ (compound exhibited 51-75% inhibition at 0.3 μM concentration)
Cc1ccc2c(c1NC(=O)Cc1ccc(C(F)(F)F)c(F)c1)CCN(S(=O)(=O)Cc1ccccc1Cl)C2 [Compound 3466]	++ (compound exhibited 26-50% inhibition at 0.3 μM concentration)
Cc1ccc2c(c1NC(=O)Cc1ccc(C(F)(F)F)c(F)c1)CCN(S(=O)(=O)c1ccccc1C#N)C2 [Compound 3467]	++++ (compound exhibited 76% or greater inhibition at 0.3 μM concentration)
Cc1ccc2c(c1NC(=O)Cc1ccc(C(F)(F)F)c(F)c1)CCN(C(=O)C1(O)CC1)C2 [Compound 3468]	++++ (compound exhibited 76% or greater inhibition at 0.3 μM concentration)
Cc1ccc2c(c1NC(=O)Cc1ccc(C(F)(F)F)c(F)c1)CCN(C(=O)C1CC1)C2 [Compound 3469]	++++ (compound exhibited 76% or greater inhibition at 0.3 μM concentration)
Cc1ccc2c(c1NC(=O)Cc1ccc(C(F)(F)F)c(F)c1)CCN(C(=O)C(C)(C)O)C2 [Compound 3470]	++++ (compound exhibited 76% or greater inhibition at 0.3 μM concentration)
Cc1ccc2c(c1NC(=O)Cc1ccc(C(F)(F)F)c(F)c1)CCN(C(=O)C1(C)CC1)C2 [Compound 3471]	+++ (compound exhibited 51-75% inhibition at 0.3 μM concentration)
Cc1ccc2c(c1NC(=O)Cc1ccc(C(F)(F)F)c(F)c1)CCN(C(=O)C(C)(C)CO)C2 [Compound 3472]	+++ (compound exhibited 51-75% inhibition at 0.3 μM concentration)
